For part of these data: At least one read-out could not be matched to a standard name with certainty. For part of these data: For at least one compound, name, drawing or mass did not settle the structure.
Tests used:
NIOCC 2a = assay: Enhancement of laccase production by inducers; laccase activity in culture supernatant (ABTS); conditions: dyes as inducers at 0.015-0.04%;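 note: supernatant laccase measured by 2 mM ABTS oxidation in 100 mM glycine-HCl buffer at pH 3, absorbance at 405 nm tracked over time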
fungus MTCC 5159 = assay: Decolorization of dyes and effluents by growing fungus culture; assay type: cell-based, unidentified marine fungus NIOCC #2a (MTCC 5159); conditions: by day 4; dye added to six day old culture
From the text: Black liquor is dark brown in color and after decolorization by the fungus MTCC 5159, it turns light brown after 6 days. Similarly molasses spent wash is dark brown and turns straw color after 6 days. Textile effluents A, originally magenta in color was comparatively difficult to decolorize whereas Textile effluent B, originally bottle green in color was comparatively easy to decolorize to a light green color after 6 days. The process for the decolorization of various effluents utilizing the fungal biomass involves addition of sterilized, appropriately diluted effluents to a 6 day-old culture of NIOCC 2a growing in B&K medium. The degradation of effluents and various dyes is monitored spectrophotometrically by removing an aliquot of sample from these cultures and measuring changes in absorbance at appropriate wavelengths. The decolorization is measured every alternate day up to 6 days. […]
The fungus MTCC 5159 was tested for its ability to decolorize various dyes and effluents by monitoring the change in its specific absorbance maxima every alternate day over a period of 6 days after the dye/effluents were added. […] The extent of decolorization was recorded as residual color (in percentage). […] Effluents like textile effluent A, B, MSW and black liquor were also monitored at their absorbance maxima in B&K medium, at 505, 663, 663 and 317 nm respectively.

[1] = test system: culture supernatant of NIOCC 2a; assay: Decolorization using culture supernatant of NIOCC 2a; assay type: biochemical, unidentified marine fungus NIOCC #2a (MTCC 5159); conditions: dyes 0.02-0.04%, 60° C., pH 6.0, supernatant concentrated two-fold
Method: The process of decolorization of various dyes and effluents using the cell-free supernatant involves addition of filter sterilized culture supernatant of the said fungus grown in the presence of various dyes, inducers and dilute effluents. The decolorization of the effluents was monitored spectrophotometrically at appropriate wavelengths up to 12 hours. The uninoculated culture medium containing these dyes served as control.
NIOCC 2a was grown in B&K medium prepared in sea water of 25 ppt salinity (the pH of the medium being 7.0) for 6 days. It was supplemented with 1% textile effluent B on day 6. The culture supernatant on day 12 was collected and concentrated two-fold. The concentrated enzyme was incubated with various dyes used at concentrations as given in Example 2 and the effluents were used at 10% only. The decolorization was monitored at 6 and 12 hours by incubating the samples in a water bath at 60° C. and pH 6.0 The absorbance maxima specific to that particular dye/effluent was monitored for 6 to 12 hours.

| Compound | LACCASE ACTIVITY (NIOCC 2a; day 3) [UL^−1] | LACCASE ACTIVITY (NIOCC 2a; day 6) [UL^−1] | LACCASE ACTIVITY (NIOCC 2a; day 10) [UL^−1] | LACCASE ACTIVITY (NIOCC 2a; day 12) [UL^−1] | LACCASE ACTIVITY (NIOCC 2a; day 14) [UL^−1] | LACCASE ACTIVITY (NIOCC 2a; day 16) [UL^−1] | LACCASE ACTIVITY (NIOCC 2a; day 18) [UL^−1] | decolorization by the fungus culture (FIG. 2a), in words (fungus MTCC 5159) | PERCENT DECOLORIZATION ([1]; 6 hours) [%] | PERCENT DECOLORIZATION ([1]; 12 hours) [%] | PERCENT DECOLORIZATION ([1]; 12 hours, listed as brilliant green) [%] | LACCASE ACTIVITY (NIOCC 2a; day 8) [UL^−1] |
| --- | --- | --- | --- | --- | --- | --- | --- | --- | --- | --- | --- | --- |
| Nc1c(/N=N/c2ccc(-c3ccc(/N=N/c4cc(S(=O)(=O)O)c5ccccc5c4N)cc3)cc2)cc(S(=O)(=O)O)c2ccccc12 [Congo Red, congo red] | 5 | 5 | 955 | 966 | 1363 | 1389 | 1241 | – | – | – | – | – |
| CCN(CC)c1ccc(C(=C2C=CC(=[N+](CC)CC)C=C2)c2ccccc2)cc1 [Brilliant Green, brilliant green] | – | – | – | – | – | – | – | almost totally decolorized | 72 | 79 | ~80 | – |
| Cc1cc(-c2ccc(/N=N/c3c(S(=O)(=O)O)cc4cc(S(=O)(=O)O)cc(N)c4c3O)c(C)c2)ccc1/N=N/c1c(S(=O)(=O)O)cc2cc(S(=O)(=O)O)cc(N)c2c1O [Trypan Blue, Trypan blue] | 21 | 1 | 747 | 844 | 897 | 812 | 505 | – | – | – | – | 149 |
| CN(C)c1ccc(C(=C2C=CC(=[N+](C)C)C=C2)c2ccc(N(C)C)cc2)cc1 [Crystal Violet, crystal violet] | 4 | 104 | 581 | 825 | 819 | 671 | 745 | – | – | – | – | 0 |
